The target of assay [1] is T1, Transmembrane-4 L-six family member-1 (TM4SF1), endogenous (human (endogenous in Eca109 and ESCC patient tissue)) (UniProt P30408).
T1 sequence: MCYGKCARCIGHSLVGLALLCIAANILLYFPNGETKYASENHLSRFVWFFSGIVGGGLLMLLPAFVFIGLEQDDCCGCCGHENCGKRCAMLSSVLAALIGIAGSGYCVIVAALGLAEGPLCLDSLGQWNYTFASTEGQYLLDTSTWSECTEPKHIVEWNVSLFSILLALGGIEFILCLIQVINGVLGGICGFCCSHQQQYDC
Description: co-IP; endogenous TM4SF1 immunoprecipitated with anti-TM4SF1 antibody and protein-A/G PLUS beads from homogenized ESCC patient tissue lysate; 0.1% Triton TBS (20 mM Tris-HCl pH 7.4, 150 mM NaCl), 4 °C; blots for integrin α6, β4, β1.

Assay [2] deals with T1, Transmembrane-4 L-six family member-1 (TM4SF1), endogenous (human (endogenous in Eca109 and ESCC patient tissue)). Kind of assay: co-IP; endogenous TM4SF1 immunoprecipitated with anti-TM4SF1 antibody and protein-A/G PLUS beads from Eca109 cells cultured with or without laminin-coating; 0.1% Triton TBS (20 mM Tris-HCl pH 7.4, 150 mM NaCl), 4 °C; blots for integrin α6, β4, β1.

Results are given in words; binding and its absence hold for the method and conditions named. Binding seen in cells or lysates may run through a third protein. A result given as binding can be weak or reduced; the word gives no strength.

As to integrin α6 (receptor), the binding entry in assay [1] and in assay [2] was “binds” in each case.

The record behind these values is article PMC9283456.
